Data published in publication PMC9143113.

Protein sequences, listed by entry. Tags and fused reporters are not part of them. Lines headed by an entry give the natural chain unless they say otherwise; changes in a name come on top.
UniProt A5F9W9: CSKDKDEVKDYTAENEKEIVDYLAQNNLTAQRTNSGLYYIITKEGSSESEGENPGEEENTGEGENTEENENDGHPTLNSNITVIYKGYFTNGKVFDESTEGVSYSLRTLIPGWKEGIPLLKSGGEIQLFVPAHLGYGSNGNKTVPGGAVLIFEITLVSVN

Molecular target: sfGFP-CTD_(SprB (368 aa)) (Flavobacterium johnsoniae UW101) (UniProt A1E5U5)
Test: affinity purification with mass spectrometry; co-immunoprecipitation with anti-GFP agarose (Chromotek) from lysates of the F. johnsoniae sfGFP-CTD SprB (368 aa) strain against the F. johnsoniae WT control; LC-MS/MS, MaxQuant LFQ and iBAQ

binding	Substance
binds	Fjoh_3466 (homolog of PorD) (from UniProt A5FE93)
binds	Fjoh_4997 (PPI) (from UniProt A5F9W9)

No constants are given. Whether binding was seen depends on the method and setting. Binding seen in cells or lysates may run through a third protein. Here binding means that the protein was enriched with, or labelled near, the bait; the list need not be complete.
